Amino acid sequences for entries named in this document (tags omitted).
UniProt Q0JBA9, entry or part of it: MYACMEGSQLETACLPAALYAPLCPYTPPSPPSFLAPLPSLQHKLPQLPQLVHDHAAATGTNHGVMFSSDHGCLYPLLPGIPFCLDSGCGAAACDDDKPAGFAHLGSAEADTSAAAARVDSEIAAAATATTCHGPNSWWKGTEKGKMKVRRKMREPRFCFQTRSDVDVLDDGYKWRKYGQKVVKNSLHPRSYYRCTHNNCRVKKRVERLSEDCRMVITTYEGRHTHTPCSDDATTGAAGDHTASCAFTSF

This is one part of the list.
The sequences below were run against OsWRKY34 (Oryza sativa, UniProt Q0JBA9 1-250) (assay: protein-binding microarray (RPBM); PBS, 2% BSA, 51.3 ng/ul salmon testes DNA, 50 uM zinc acetate, 200 nM TF, 25 C, 1 h; high values mean tight binding). Conditions: protein: recombinant; tags: N-terminal polyhistidine and DsRed monomer fusion (pET32a); label: CyDye5-dUTP incorporated in the synthesized complementary strand; 3' TTTTT single-stranded linker to array surface; dsDNA, one strand shown.
Summary of the method: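 Per-feature fluorescence intensity (arbitrary units), read on an Axon 4000B scanner, is the binding signal. Transcription factors carrying an N-terminal polyhistidine tag and DsRed fusion were expressed in E. coli BL21-CodonPlus and purified on Ni–NTA. A custom Agilent array, made double-stranded by primer extension with Cy5-dUTP and blocked with 2% BSA, was incubated with 200 nM protein in PBS, 2% BSA, salmon testes DNA and 50 µM zinc acetate at 25 °C for 1 h and then washed.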
With “GTATCTTCATGCTTTATTATATTGAACGGTTTATAAGGCTCGGAGTCACCTAGTGCAG” the binding signal was 9060 fluorescence intensity (a.u.). For “CGGTGGTTTTGATTTCTCCTGATTGCTGAGGCGATTGCCCCGGAGTCACCTAGTGCAG”, the binding signal was 8640 fluorescence intensity (a.u.). In the case of “ACAAGTGGGCCTCAATTTTTACTCCACTTTTCCCTTTTCACGGAGTCACCTAGTGCAG”, the binding signal is reported as 9880 fluorescence intensity (a.u.). “AGTAAGGTTGGTTTTTCTAGGACGGAGGGAGTAACTTACCCGGAGTCACCTAGTGCAG” was tested, and the binding signal was 9500 fluorescence intensity (a.u.). With “AATATCATCGTCGTTAGGGTTTCGTCCATCCCACACAGTTCGGAGTCACCTAGTGCAG” the binding signal was 8200 fluorescence intensity (a.u.). “TTCGCGTACTCGATGTCGTCCGCGGCGCGGGGCGAGGGGCCGGAGTCACCTAGTGCAG” was tested, and the binding signal was 10600 fluorescence intensity (a.u.). “CTTGCACTGTCCGAGCTTATTTTACCCACACACTTGCCCTCGGAGTCACCTAGTGCAG” was tested, and the binding signal was 8290 fluorescence intensity (a.u.). “TTTTCAGTTTCATTTCACCTATTTTTACATGTCTATCTTTCGGAGTCACCTAGTGCAG” was tested, and the binding signal was 9500 fluorescence intensity (a.u.). For “GTTATAAGACGTTTTGATTTTAGTCAAAGTCAAACTATTCCGGAGTCACCTAGTGCAG”, the binding signal was 8900 fluorescence intensity (a.u.). “TGCTCTACACAAACATTGTTGTTTTTTTTTTCGTAAGGGGCGGAGTCACCTAGTGCAG” was tested, and the binding signal was 10500 fluorescence intensity (a.u.). With “CATAAACTTTCAACTTTTCCGTCACATCATTCTAATTTCACGGAGTCACCTAGTGCAG” the binding signal was 8940 fluorescence intensity (a.u.). With “TGTTGTTATGTTTTTGTCATGATCTCACAAGCAATGTACACGGAGTCACCTAGTGCAG” the binding signal was 11000 fluorescence intensity (a.u.). In the case of “GTGCCCACTCCGTTGCTGCCTGCCTGCCTGTCCGTCCTAGCGGAGTCACCTAGTGCAG”, the binding signal is reported as 9080 fluorescence intensity (a.u.). “TCCTCCTTCCACATCTCCGTCTCTCTCTCTCTCATCACGACGGAGTCACCTAGTGCAG” was tested, and the binding signal was 12000 fluorescence intensity (a.u.). In the case of “CCACAGCTCGCCGCCGTCCATGCTGCAGGTATGTATCATCCGGAGTCACCTAGTGCAG”, the binding signal is reported as 8170 fluorescence intensity (a.u.). “GGCGAACTATGTGATTGTTTTTTTTCTACATTTAATATCTCGGAGTCACCTAGTGCAG” was tested, and the binding signal was 12300 fluorescence intensity (a.u.). In the case of “TGTATGCGTGTGTGTTGTTATGTACCGTAAGACTGTGTTTCGGAGTCACCTAGTGCAG”, the binding signal is reported as 9780 fluorescence intensity (a.u.). For “CACTCATTCACTCGCTCACTCGGATCCCATTCAATCATTCCGGAGTCACCTAGTGCAG”, the binding signal was 9340 fluorescence intensity (a.u.). In the case of “GGTTGGGGAAATTTTAGGAAATGGGCCGAGATGGTACTGTCGGAGTCACCTAGTGCAG”, the binding signal is reported as 8140 fluorescence intensity (a.u.). For “GCCTGCGTTTTTTTTATCCTTTCTGCTTGCACGAATCTCGCGGAGTCACCTAGTGCAG”, the binding signal was 8070 fluorescence intensity (a.u.). In the case of “CGCCCACCCGCCCGCCGCTTTGCGTGTGCGCACAACACAGCGGAGTCACCTAGTGCAG”, the binding signal is reported as 8370 fluorescence intensity (a.u.). For “ACCGGACAACCAAACATCCACCTCGTTTCAGCTTTTCTTACGGAGTCACCTAGTGCAG”, the binding signal was 8290 fluorescence intensity (a.u.). For “ACAACACTAACAACATCTCCACTGCACCCATCTCTCTTGCCGGAGTCACCTAGTGCAG”, the binding signal was 8290 fluorescence intensity (a.u.). For “TCGCTATGTTTGCTGCACTCGAGGATGAACGCGCGATTCACGGAGTCACCTAGTGCAG”, the binding signal was 10200 fluorescence intensity (a.u.). “GGCGGCGGCGGCGGCGTGGAGGGGAATGGGGAGAGAGTGGCGGAGTCACCTAGTGCAG” was tested, and the binding signal was 9120 fluorescence intensity (a.u.). In the case of “CCGTTTTGCTCTCAAATTTGAATAAATATTACTCTTTTTTCGGAGTCACCTAGTGCAG”, the binding signal is reported as 9520 fluorescence intensity (a.u.). In the case of “TTTCTCTTGATTGCACCTGCATTTTCTTGGGGTCGTTTATCGGAGTCACCTAGTGCAG”, the binding signal is reported as 8600 fluorescence intensity (a.u.). In the case of “ATTTATTTTTTACCCTTATATCTATTTCCAACGGCTTTTACGGAGTCACCTAGTGCAG”, the binding signal is reported as 8090 fluorescence intensity (a.u.). For “TAAGGCATCAACACGTTTGGCAGCTACCTTCCTTATTTATCGGAGTCACCTAGTGCAG”, the binding signal was 8790 fluorescence intensity (a.u.). “GCCCGACTGCTTCTTGCGCTTCCCGCCGTCGGCCAGCAGGCGGAGTCACCTAGTGCAG” was tested, and the binding signal was 8650 fluorescence intensity (a.u.). For “TATGGTCTTCTCCTATGTATCGTTCTGCTGATTTTTTTTACGGAGTCACCTAGTGCAG”, the binding signal was 9360 fluorescence intensity (a.u.). For “CTTGTTGCTTCACTCAAAGTGAGTGTTCTTGTCAGTTGTCCGGAGTCACCTAGTGCAG”, the binding signal was 9080 fluorescence intensity (a.u.). With “ACAGGTGTTGGTTAGTTGTGTTTCGTTTGCTTAGAAGTAACGGAGTCACCTAGTGCAG” the binding signal was 8180 fluorescence intensity (a.u.). In the case of “GCCTCGAGGGATGAAATTCCACATCCCTATATTCACATGTCGGAGTCACCTAGTGCAG”, the binding signal is reported as 8810 fluorescence intensity (a.u.). For “CCATCCATCCACCATCTTGCATGCTAGCTAGCTACCCTGCCGGAGTCACCTAGTGCAG”, the binding signal was 11100 fluorescence intensity (a.u.). With “ATTCAACTTACATGTGAAATTTATTTATTGTAGGCCTCATCGGAGTCACCTAGTGCAG” the binding signal was 8330 fluorescence intensity (a.u.). “CTCACATGTTTGACCAATCGTCTTATTCAAAAATTTTATGCGGAGTCACCTAGTGCAG” was tested, and the binding signal was 10500 fluorescence intensity (a.u.). “CCAGAGAACATGCCTCACATACTATACATATTGCATCTGTCGGAGTCACCTAGTGCAG” was tested, and the binding signal was 8140 fluorescence intensity (a.u.). “CTCCTTCCATCTTTGACCTCGTCTCGTCTCGTCTCGTCTCCGGAGTCACCTAGTGCAG” was tested, and the binding signal was 11200 fluorescence intensity (a.u.). In the case of “GCTTCGGCTTCTCTCAACTACTGTTTGCTTCGCCGCCGTCCGGAGTCACCTAGTGCAG”, the binding signal is reported as 13200 fluorescence intensity (a.u.). “CTCACTCGTCACTCTCCTATTCTCACCGGCCTCGCAGCTGCGGAGTCACCTAGTGCAG” was tested, and the binding signal was 13900 fluorescence intensity (a.u.). “GATACTCACATTGTTATAGTCAAATATTTTCATCTGCTTACGGAGTCACCTAGTGCAG” was tested, and the binding signal was 8160 fluorescence intensity (a.u.). “AGAGGAGAGAAAAAATTCTACATGTCACATATTACGTTCACGGAGTCACCTAGTGCAG” was tested, and the binding signal was 8810 fluorescence intensity (a.u.). For “TTTGCTTGTTTCATTTTTTTTCAGATAGTCTGAATGTCTGCGGAGTCACCTAGTGCAG”, the binding signal was 8920 fluorescence intensity (a.u.). “TTGGTTTGGTTCGTGGCCTAAATAGGCCTTACTAAATTTTCGGAGTCACCTAGTGCAG” was tested, and the binding signal was 9030 fluorescence intensity (a.u.). In the case of “AGTCAGAATGTACATACTCCACCGCGTACGCCTAGCATTTCGGAGTCACCTAGTGCAG”, the binding signal is reported as 8720 fluorescence intensity (a.u.). With “GCATTTCGAAGGAGTTTTGGAGGATTGGCTTAGTATTTCTCGGAGTCACCTAGTGCAG” the binding signal was 10400 fluorescence intensity (a.u.). In the case of “ATGAAGCATTCTTCTTCTTCTTCTTCTTCTTGGGTCTTCTCGGAGTCACCTAGTGCAG”, the binding signal is reported as 8940 fluorescence intensity (a.u.). “AGCTATCTATTACTAGTTCTTCCTTCGATTCCAAGCATATCGGAGTCACCTAGTGCAG” was tested, and the binding signal was 9030 fluorescence intensity (a.u.). For “CTCCCGTGCACTCCTACTAGCCGTTGCGCCTCTCCTCTGCCGGAGTCACCTAGTGCAG”, the binding signal was 11000 fluorescence intensity (a.u.). For “CACACCCATCTGTTCCCTTCCAGCATCCACAACCTCTTCACGGAGTCACCTAGTGCAG”, the binding signal was 10100 fluorescence intensity (a.u.). “AAATTTTGCTTGTTTGTACATGGTTATTTAGTTTTTTCAACGGAGTCACCTAGTGCAG” was tested, and the binding signal was 11600 fluorescence intensity (a.u.). “TCATCTCATTTCTCTCTTCTTGTCACCTTGTTCTCTGCACCGGAGTCACCTAGTGCAG” was tested, and the binding signal was 9730 fluorescence intensity (a.u.). With “ACCTTGCTCCCGTCCGTCCGTACGTCGGAACGCAGCTATGCGGAGTCACCTAGTGCAG” the binding signal was 8060 fluorescence intensity (a.u.).
